Results are given in words; binding and its absence hold for the method and conditions named. Binding seen in cells or lysates may run through a third protein. Some binding calls cover weakened binding; strength is not graded here.
Target: CXCR3-SmBiT (UniProt P49682)
Assay: split reporter; direct mode: receptor with C-terminal SmBiT and LgBiT-βarr1 or LgBiT-βarr2 in HEK293T cells; luminescence after stimulation with VUF10661 or VUF11418 (VUF11207 as reference at CXCR7)

Amino acid sequences for entries named in this document (tags omitted).
UniProt P49682: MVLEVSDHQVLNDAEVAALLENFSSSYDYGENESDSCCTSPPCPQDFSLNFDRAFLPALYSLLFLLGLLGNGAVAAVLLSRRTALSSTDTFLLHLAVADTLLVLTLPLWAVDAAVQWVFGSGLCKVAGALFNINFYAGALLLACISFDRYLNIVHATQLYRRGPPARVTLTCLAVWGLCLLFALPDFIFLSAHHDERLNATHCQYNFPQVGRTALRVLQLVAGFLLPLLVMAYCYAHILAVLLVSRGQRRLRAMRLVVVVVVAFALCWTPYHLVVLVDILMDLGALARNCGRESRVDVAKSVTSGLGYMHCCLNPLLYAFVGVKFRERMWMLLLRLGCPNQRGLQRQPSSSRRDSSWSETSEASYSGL
UniProt P49407: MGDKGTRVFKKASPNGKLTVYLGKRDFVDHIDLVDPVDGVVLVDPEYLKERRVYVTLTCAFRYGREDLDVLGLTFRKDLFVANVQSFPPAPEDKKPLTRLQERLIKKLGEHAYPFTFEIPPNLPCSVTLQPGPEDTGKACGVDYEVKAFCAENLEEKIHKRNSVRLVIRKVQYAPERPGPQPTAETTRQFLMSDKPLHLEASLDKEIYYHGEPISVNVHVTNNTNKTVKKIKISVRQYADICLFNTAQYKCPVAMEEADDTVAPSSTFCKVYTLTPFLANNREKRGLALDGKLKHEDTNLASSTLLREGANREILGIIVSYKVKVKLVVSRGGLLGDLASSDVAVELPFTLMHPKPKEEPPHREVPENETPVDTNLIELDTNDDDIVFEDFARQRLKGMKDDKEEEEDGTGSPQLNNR

binding: binds
Substance: LgBiT-βarr1 (from UniProt P49407 1-418)

From article PMC11953467
